These are yes or no findings as the source states them, for the method shown. Binding seen in cells or lysates may run through a third protein. Some entries that bind do so weakly or less than the wild type.
Key:
[1] = target: cyclin-dependent kinase 5 (Cdk5), overexpressed (UniProt Q03114); assay: co-IP; TrkA, TrkB or TrkC overexpressed together with Cdk5 or p35 in COS7 cells or HEK293T cells; immunoprecipitation with Cdk5, p35 or pan-Trk antibody, blot with pan-Trk antibody; 1-2 mg lysate with 1 ug antibody at 4 °C overnight, protein G Sepharose; IgG control
p35, overexpressed = p35, overexpressed (UniProt P61810); assay: as above
[2] = target: p35, endogenous in rat brain and rat cortical neurons (rat (endogenous in P7 rat brain and rat cortical neurons)) (UniProt P61810); assay: co-IP; Rat cortical neurons with or without BDNF for 20 min; lysates immunoprecipitated with p35 antibody, blotted with TrkB, p35 or Cdk5 antibody

Protein sequences, listed by entry. Tags and fused reporters are not part of them. Residues count along the entry.
UniProt P61810: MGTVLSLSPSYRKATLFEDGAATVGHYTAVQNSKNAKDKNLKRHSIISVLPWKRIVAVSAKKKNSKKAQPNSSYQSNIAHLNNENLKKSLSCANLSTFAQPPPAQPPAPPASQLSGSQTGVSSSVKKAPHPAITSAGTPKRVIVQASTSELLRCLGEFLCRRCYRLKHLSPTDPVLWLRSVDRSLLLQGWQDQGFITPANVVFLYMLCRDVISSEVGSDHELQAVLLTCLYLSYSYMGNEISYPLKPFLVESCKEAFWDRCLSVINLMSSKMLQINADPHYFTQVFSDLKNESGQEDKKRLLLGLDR
UniProt P35739, residues 33-799: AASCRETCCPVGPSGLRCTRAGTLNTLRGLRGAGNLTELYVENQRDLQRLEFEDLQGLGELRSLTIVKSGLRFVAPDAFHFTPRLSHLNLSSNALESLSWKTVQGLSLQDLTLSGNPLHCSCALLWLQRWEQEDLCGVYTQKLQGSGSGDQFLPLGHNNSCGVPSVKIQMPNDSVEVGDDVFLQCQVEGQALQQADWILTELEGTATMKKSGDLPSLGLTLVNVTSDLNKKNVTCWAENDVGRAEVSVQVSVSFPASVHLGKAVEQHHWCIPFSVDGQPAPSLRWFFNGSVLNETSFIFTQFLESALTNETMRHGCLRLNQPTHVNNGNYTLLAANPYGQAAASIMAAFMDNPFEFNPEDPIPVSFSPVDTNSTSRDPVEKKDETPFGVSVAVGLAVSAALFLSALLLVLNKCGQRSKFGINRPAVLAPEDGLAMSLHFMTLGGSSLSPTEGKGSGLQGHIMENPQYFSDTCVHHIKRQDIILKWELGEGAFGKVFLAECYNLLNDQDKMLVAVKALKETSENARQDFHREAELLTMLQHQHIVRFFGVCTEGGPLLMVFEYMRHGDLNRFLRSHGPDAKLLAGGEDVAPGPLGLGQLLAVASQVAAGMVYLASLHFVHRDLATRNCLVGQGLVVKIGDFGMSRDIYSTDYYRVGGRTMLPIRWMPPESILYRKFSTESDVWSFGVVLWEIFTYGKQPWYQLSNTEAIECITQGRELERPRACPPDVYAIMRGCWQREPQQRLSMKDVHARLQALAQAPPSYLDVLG

binding [1]	binding (p35, overexpressed)	binding [2]	Substance
binds	binds	–	TrkA (from UniProt P35739 33-799) (receptor)
–	–	binds	cyclin-dependent kinase 5 (Cdk5), endogenous in rat brain and rat cortical neurons (from UniProt Q03114 1-292) (enzyme)

— PMC1808488
